# Test results: the supplement of paper PMC8728848
# Some of the results follow.
# B1: EUL D1A (Oryza sativa) (protein)
# chain: MFGFGHHHNQAPAAPSDPNQIFKIFCRANENYCLTVRDSAVVLAPVNPKDEHQHWFKDMRFSTKVKDGEGMPAFALVNKATGLAVKHSLGQSHPVKLVPFNPEYEDASVLWTESKDVGKGFRCIRMVNNTRLNLDAFHGDKDHGGVRDGTTVVLWEWCKGDNQSWKILPWGPEAHSSSPGAATACTIGGVPVHTVRVFSAAGEDYCLTVRNGTACLAPKNPRDDYQHWIKDMRHSNKIRDEEGYPAFALVNKVTGEAIKHSTGQGHPVKLVPYNPEYQDESVLWTESKDVGKGFRCIRMVNNIYLNFDAFHGDKDHGGIHDGTEIVLWKWCEGDNQRWKILPWILEQKLISEEDLNSAVDHHHHHH
# Experiments:
# Assay in all cases: glycan array binding signal (z-score within array); higher = stronger binding
# Details in all cases: glycan notation: IUPAC condensed, linker removed
# [1] = target: Neu5Ac(a2-6)Gal(b1-4)GlcNAc(b1-6)GalNAc
# Procedure, shortened: (§1)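 Arrays were curated from the Consortium for Functional Glycomics database, 3228 in total, and kept only where the protein sequence was available. Binding is expressed as a within-array Z-score. This score was averaged across arrays of the same protein sequence at different concentrations or buffers and across linkers, and negative values can be read as non-binding.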
# [2] = target: Neu5Ac(a2-6)Gal(b1-4)GlcNAc(b1-6)[Gal(b1-3)GlcNAc(b1-3)]Gal(b1-4)Glc
# Procedure, shortened: as §1
# [3] = target: Neu5Ac(a2-6)Gal(b1-4)GlcNAc(b1-6)[Gal(b1-3)]GalNAc
# Procedure, shortened: as §1
# [4] = target: Neu5Ac(a2-6)Gal(b1-4)GlcNAc6S
# Procedure, shortened: as §1
# Neu5Ac(a2-6)GalNAc = target: Neu5Ac(a2-6)GalNAc
# Procedure, shortened: as §1
# [5] = target: Neu5Ac(a2-6)GalNAc(b1-4)GlcNAc
# Procedure, shortened: as §1
# [6] = target: Neu5Ac(a2-6)GalNAc(b1-4)GlcNAc6S
# Procedure, shortened: as §1
# [7] = target: Neu5Ac(a2-6)GlcNAc(b1-4)GlcNAc
# Procedure, shortened: as §1
# [8] = target: Neu5Ac(a2-6)GlcNAc(b1-4)GlcNAc(b1-4)GlcNAc
# Procedure, shortened: as §1
# Neu5Ac(a2-8)Neu5Ac = target: Neu5Ac(a2-8)Neu5Ac
# Procedure, shortened: as §1
# [9] = target: Neu5Ac(a2-8)Neu5Ac(a2-3)Gal(b1-3)GalNAc(b1-4)[Neu5Ac(a2-3)]Gal(b1-4)Glc
# Procedure, shortened: as §1
# [10] = target: Neu5Ac(a2-8)Neu5Ac(a2-3)Gal(b1-3)GalNAc(b1-4)[Neu5Ac(a2-8)Neu5Ac(a2-3)]Gal(b1-4)Glc
# Procedure, shortened: as §1
# [11] = target: Neu5Ac(a2-8)Neu5Ac(a2-3)Gal(b1-4)Glc
# Procedure, shortened: as §1
# [12] = target: Neu5Ac(a2-8)Neu5Ac(a2-3)Gal(b1-4)GlcNAc
# Procedure, shortened: as §1
# [13] = target: Neu5Ac(a2-8)Neu5Ac(a2-3)[Gal(b1-3)GalNAc(b1-4)]Gal(b1-4)Glc
# Procedure, shortened: as §1
# [14] = target: Neu5Ac(a2-8)Neu5Ac(a2-3)[GalNAc(b1-4)]Gal(b1-4)Glc
# Procedure, shortened: as §1
# [15] = target: Neu5Ac(a2-8)Neu5Ac(a2-8)Neu5Ac
# Procedure, shortened: as §1
# [16] = target: Neu5Ac(a2-8)Neu5Ac(a2-8)Neu5Ac(a2-3)Gal(b1-4)Glc
# Procedure, shortened: as §1
# [17] = target: Neu5Ac(a2-8)Neu5Ac(a2-8)Neu5Ac(a2-3)[Gal(b1-3)GalNAc(b1-4)]Gal(b1-4)Glc
# Procedure, shortened: as §1
# [18] = target: Neu5Ac(a2-8)Neu5Ac(a2-8)Neu5Ac(a2-3)[GalNAc(b1-4)]Gal(b1-4)Glc
# Procedure, shortened: as §1
# [19] = target: Neu5Ac(a2-8)Neu5Ac(a2-8)Neu5Ac(a2-8)Neu5Ac(a2-3)[GalNAc(b1-4)]Gal(b1-4)Glc
# Procedure, shortened: as §1
# [20] = target: Neu5Ac(a2-8)Neu5Gc(a2-3)Gal(b1-4)GlcNAc
# Procedure, shortened: as §1
# [21] = target: Neu5Ac(b2-6)Gal(b1-4)GlcNAc
# Procedure, shortened: as §1
# Neu5Ac(b2-6)GalNAc = target: Neu5Ac(b2-6)GalNAc
# Procedure, shortened: as §1
# [22] = target: Neu5Ac9Ac(a2-3)Gal(b1-3)GlcNAc
# Procedure, shortened: as §1
# [23] = target: Neu5Ac9Ac(a2-3)Gal(b1-4)GlcNAc
# Procedure, shortened: as §1
# [24] = target: Neu5Ac9Ac(a2-6)Gal(b1-4)GlcNAc
# Procedure, shortened: as §1
# [25] = target: Neu5Gc(a2-3)Gal(b1-3)GlcNAc
# Procedure, shortened: as §1
# [26] = target: Neu5Gc(a2-3)Gal(b1-3)[Fuc(a1-4)]GlcNAc
# Procedure, shortened: as §1
# Neu5Gc(a2-3)Gal(b1-4)Glc = target: Neu5Gc(a2-3)Gal(b1-4)Glc
# Procedure, shortened: as §1
# [27] = target: Neu5Gc(a2-3)Gal(b1-4)GlcNAc
# Procedure, shortened: as §1
# [28] = target: Neu5Gc(a2-3)Gal(b1-4)GlcNAc(b1-3)Gal(b1-4)GlcNAc(b1-2)Man(a1-3)[Neu5Gc(a2-3)Gal(b1-4)GlcNAc(b1-3)Gal(b1-4)GlcNAc(b1-2)Man(a1-6)]Man(b1-4)GlcNAc(b1-4)GlcNAc
# Procedure, shortened: as §1
# [29] = target: Neu5Gc(a2-3)Gal(b1-4)[Fuc(a1-3)]GlcNAc
# Procedure, shortened: as §1
# [30] = target: Neu5Gc(a2-6)Gal(b1-4)GlcNAc
# Procedure, shortened: as §1
# Neu5Gc(a2-6)GalNAc = target: Neu5Gc(a2-6)GalNAc
# Procedure, shortened: as §1
# [31] = target: Neu5Gc(a2-8)Neu5Ac(a2-3)Gal(b1-4)GlcNAc
# Procedure, shortened: as §1
# [32] = target: Neu5Gc(a2-8)Neu5Gc(a2-3)Gal(b1-4)GlcNAc
# Procedure, shortened: as §1
# [33] = target: Neu5Gc(a2-8)Neu5Gc(a2-3)Gal(b1-4)GlcNAc(b1-3)Gal(b1-4)GlcNAc
# Procedure, shortened: as §1
binder,measurement,setting,value
B1,glycan array binding signal (z-score),[1],-0.263
same,glycan array binding signal (z-score),[2],-0.493
same,glycan array binding signal (z-score),[3],-0.319
same,glycan array binding signal (z-score),[4],-1.56
same,glycan array binding signal (z-score),Neu5Ac(a2-6)GalNAc,-1.24
same,glycan array binding signal (z-score),[5],-0.999
same,glycan array binding signal (z-score),[6],-0.749
same,glycan array binding signal (z-score),[7],0.693
same,glycan array binding signal (z-score),[8],0.367
same,glycan array binding signal (z-score),Neu5Ac(a2-8)Neu5Ac,-0.372
same,glycan array binding signal (z-score),[9],0.031
same,glycan array binding signal (z-score),[10],0.293
same,glycan array binding signal (z-score),[11],-0.574
same,glycan array binding signal (z-score),[12],-1.34
same,glycan array binding signal (z-score),[13],0.472
same,glycan array binding signal (z-score),[14],-0.676
same,glycan array binding signal (z-score),[15],0.425
same,glycan array binding signal (z-score),[16],-0.708
same,glycan array binding signal (z-score),[17],-0.062
same,glycan array binding signal (z-score),[18],-0.685
same,glycan array binding signal (z-score),[19],-1.03
same,glycan array binding signal (z-score),[20],0.146
same,glycan array binding signal (z-score),[21],1.65
same,glycan array binding signal (z-score),Neu5Ac(b2-6)GalNAc,-0.626
same,glycan array binding signal (z-score),[22],-0.59
same,glycan array binding signal (z-score),[23],0.165
same,glycan array binding signal (z-score),[24],-0.088
same,glycan array binding signal (z-score),[25],-1.27
same,glycan array binding signal (z-score),[26],0.008
same,glycan array binding signal (z-score),Neu5Gc(a2-3)Gal(b1-4)Glc,-0.225
same,glycan array binding signal (z-score),[27],-0.051
same,glycan array binding signal (z-score),[28],-0.325
same,glycan array binding signal (z-score),[29],0.11
same,glycan array binding signal (z-score),[30],-1.39
same,glycan array binding signal (z-score),Neu5Gc(a2-6)GalNAc,-0.944
same,glycan array binding signal (z-score),[31],-0.726
same,glycan array binding signal (z-score),[32],0.404
same,glycan array binding signal (z-score),[33],-0.888

# A second format for part of the listing above.
binder | measurement | setting | value
B1 | glycan array binding signal (z-score) | Neu5Ac(a2-6)GalNAc | -1.24
same | glycan array binding signal (z-score) | Neu5Ac(a2-8)Neu5Ac | -0.372
same | glycan array binding signal (z-score) | [17] | -0.062
same | glycan array binding signal (z-score) | [18] | -0.685
same | glycan array binding signal (z-score) | [19] | -1.03
same | glycan array binding signal (z-score) | [29] | 0.11
same | glycan array binding signal (z-score) | [33] | -0.888
